Reference: article PMC7565092
Results are given in words; binding and its absence hold for the method and conditions named. Binding seen in cells or lysates may run through a third protein. Some results given as binding are weak or reduced against the parent protein; the word gives no strength. Sequences can lack the tags named with a protein. Blank lines part the entries; values can stand above or below the binder they belong to.

Legend:
[1] = molecular target: T1, AU1-ASIC3 (rat acid-sensing ion channel 3 with AU1 tag) (rat) (UniProt O35240); assay: co-IP; CHO cells transfected with ASIC1a + AU1-ASIC3 (1:2 ratio); lysis in PBS, 1% Triton X-100; IP with goat anti-ASIC1 or goat anti-AU1 antibody, 2 h, 4 °C, Protein G agarose; blots for ASIC1 (rabbit) or AU1-ASIC3 (mouse)
T1 sequence: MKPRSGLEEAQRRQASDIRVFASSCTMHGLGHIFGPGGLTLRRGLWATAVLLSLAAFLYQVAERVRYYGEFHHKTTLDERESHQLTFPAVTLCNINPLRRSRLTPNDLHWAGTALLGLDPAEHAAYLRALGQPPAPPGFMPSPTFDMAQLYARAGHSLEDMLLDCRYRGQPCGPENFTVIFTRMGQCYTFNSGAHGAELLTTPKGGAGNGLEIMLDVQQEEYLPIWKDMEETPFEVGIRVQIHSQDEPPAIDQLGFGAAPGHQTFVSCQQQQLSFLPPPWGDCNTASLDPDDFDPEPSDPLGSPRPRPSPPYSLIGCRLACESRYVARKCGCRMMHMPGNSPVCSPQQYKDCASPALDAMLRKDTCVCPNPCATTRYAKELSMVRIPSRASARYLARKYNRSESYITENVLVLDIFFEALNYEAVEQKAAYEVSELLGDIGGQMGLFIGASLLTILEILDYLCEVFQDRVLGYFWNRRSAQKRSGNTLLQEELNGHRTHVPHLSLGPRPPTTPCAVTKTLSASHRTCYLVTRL

[2] = molecular target: T2, rat acid-sensing ion channel 1a (ASIC1a) (rat) (UniProt P55926); assay: as above
T2 sequence: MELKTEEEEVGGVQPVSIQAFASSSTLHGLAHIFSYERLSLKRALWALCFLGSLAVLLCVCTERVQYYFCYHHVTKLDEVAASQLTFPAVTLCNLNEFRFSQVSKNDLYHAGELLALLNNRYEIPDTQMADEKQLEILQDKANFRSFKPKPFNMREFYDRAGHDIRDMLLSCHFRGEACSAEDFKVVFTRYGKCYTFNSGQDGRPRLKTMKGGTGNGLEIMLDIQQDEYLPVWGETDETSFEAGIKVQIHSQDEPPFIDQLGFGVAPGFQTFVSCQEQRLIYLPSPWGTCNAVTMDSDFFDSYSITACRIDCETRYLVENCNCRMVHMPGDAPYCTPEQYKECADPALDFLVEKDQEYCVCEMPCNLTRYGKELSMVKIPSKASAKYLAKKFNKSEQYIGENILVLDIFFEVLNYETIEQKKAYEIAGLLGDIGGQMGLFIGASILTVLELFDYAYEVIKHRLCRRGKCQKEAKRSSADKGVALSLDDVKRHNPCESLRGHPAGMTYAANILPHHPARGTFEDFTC

binding [1]: binds
B1: rat acid-sensing ion channel 1a (ASIC1a) (protein, UniProt P55926-1 1-526)
chain: T2 sequence

binding [2]: binds
B2: AU1-ASIC3 (rat acid-sensing ion channel 3 with AU1 tag) (protein, UniProt O35240 1-533)
chain: T1 sequence
